Experiment: Global metabolomic profiling of plasma by GC-MS and LC-MS; t-tests and correlation with glucose disposal rate (Rd)
Design: species or system human

For `CC(C)C(=O)C(=O)O` [3-methyl-2-oxo-butyric acid, 3-methyl-2-oxo-butanoic acid], the “level in progressive insulin resistant states” value was “increase”.
